Results on 2 molecules are retold here after PMC8270960, “Native flagellar MS ring is formed by 34 subunits with 23-fold and 11-fold subsymmetries” (Nature Communications, 2021).

Assay [1] deals with T1, wild-type FliF expressed from a plasmid in Salmonella TH12415 (ΔfliF) (Salmonella enterica serovar Typhimurium) (UniProt P15928).
T1 sequence: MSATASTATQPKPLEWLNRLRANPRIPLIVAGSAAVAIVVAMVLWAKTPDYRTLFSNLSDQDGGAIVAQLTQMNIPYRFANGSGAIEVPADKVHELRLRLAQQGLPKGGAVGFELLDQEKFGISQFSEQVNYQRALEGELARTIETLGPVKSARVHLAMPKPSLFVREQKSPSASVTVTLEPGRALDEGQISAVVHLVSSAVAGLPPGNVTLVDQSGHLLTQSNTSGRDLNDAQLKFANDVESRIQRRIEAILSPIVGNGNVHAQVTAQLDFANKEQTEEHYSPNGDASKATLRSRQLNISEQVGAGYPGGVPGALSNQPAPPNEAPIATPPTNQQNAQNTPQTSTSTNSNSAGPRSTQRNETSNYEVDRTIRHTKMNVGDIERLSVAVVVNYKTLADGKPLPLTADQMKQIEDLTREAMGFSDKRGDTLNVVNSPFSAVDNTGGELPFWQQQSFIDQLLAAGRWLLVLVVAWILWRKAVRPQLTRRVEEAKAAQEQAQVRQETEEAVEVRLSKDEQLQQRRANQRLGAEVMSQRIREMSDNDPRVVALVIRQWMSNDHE
Briefly: co-sedimentation; membrane fractions of Salmonella TH12415 transformants (sonication, 100,000 x g), SDS-PAGE, immunoblot with anti-FliF or anti-FliN; ΔfliF as negative control.

The target in assay [2] is T2, FliF of the native flagellar basal body (native MS ring) (Salmonella enterica serovar Typhimurium (endogenous in HK1003)) (UniProt P15928).
T2 sequence: T1 sequence
The assay can be described thus: cryo-EM structure; 3D reconstruction of the basal body purified from Salmonella HK1003 in Buffer I, C-ring density subtracted, 6.8 Å; both purified.

These are yes or no findings as the source states them, for the method shown. For some assays here: Binding seen in cells or lysates may run through a third protein. Some entries that bind do so weakly or less than the wild type. For some assays here: Sequences can lack the tags named with a protein.

B1: FliN (C ring protein) (protein, UniProt P26419 1-137)
chain: MSDMNNPSDENTGALDDLWADALNEQKATTTKSAADAVFQQLGGGDVSGAMQDIDLIMDIPVKLTVELGRTRMTIKELLRLTQGSVVALDGLAGEPLDILINGYLIAQGEVVVVADKYGVRITDIITPSERMRRLSR
As to B1, the binding entry in assay [1] was “binds”.

B2: type III protein export gate formed by FliP, FliQ, and FliR (complex, UniProt P54700;P0A1L5;P54702)
chain 1: QLPGLISQPLAGGGQSWSLSVQTLVFITSLTFLPAILLMMTSFTRIIIVFGLLRNALGTPSAPPNQVLLGLALFLTFFIMSPVIDKIYVDAYQPFSEQKISMQEALDKGAQPLRAFMLRQTREADLALFARLANSGPLQGPEAVPMRILLPAYVTSELKTAFQIGFTIFIPFLIIDLVIASVLMALGMMMVPPATIALPFKLMLFVLVDGWQLLMGSLAQSFYS
chain 2: MTPESVMMMGTEAMKVALALAAPLLLVALITGLIISILQAATQINEMTLSFIPKIVAVFIAIIVAGPWMLNLLLDYVRTLFSNLPYIIG
chain 3: MIQVTSEQWLYWLHLYFWPLLRVLALISTAPILSERAIPKRVKLGLGIMITLVIAPSLPANDTPLFSIAALWLAMQQILIGIALGFTMQFAFAAVRTAGEFIGLQMGLSFATFVDPGSHLNMPVLARIMDMLAMLLFLTFNGHLWLISLLVDTFHTLPIGSNPVNSNAFMALARAGGLIFLNGLMLALPVITLLLTLNLALGLLNRMAPQLSIFVIGFPLTLTVGIMLMAALMPLIAPFCEHLFSEIFNLLADIVSEMPINNNP
Regarding B2, the binding entry in assay [2] is “binds”.
